Results taken from article PMC7835385.
No constants are given. Whether binding was seen depends on the method and setting. Some entries that bind do so weakly or less than the wild type.

Target: myosin-7a heavy chain (Drosophila), FLAG-tagged, co-expressed with light chains (Drosophila) (UniProt Q9V3Z6)
Test: co-purification (FLAG affinity chromatography) with SDS-PAGE densitometry; heavy chain and light chains co-expressed in Sf9; heavy chain captured by its FLAG tag; 150 mM NaCl, 2 mM ATP washes

Row | binding | Molecule
1 | binds | Drosophila cytoplasmic myosin light chain (Mlc-c) (from UniProt P54357 1-147)
2 | no binding | Drosophila RLC/sqh (protein, UniProt P40423 1-174) light: MSSRKTAGRRATTKKRAQRATSNVFAMFDQAQIAEFKEAFNMIDQNRDGFVEKEDLHDMLASLGKNPTDDYLDGMMNEAPGPINFTMFLTLFGERLQGTDPEDVIKNAFGCFDEENMGVLPEDRLRELLTTMGDRFTDEDVDEMYREAPIKNGLFDYLEFTRILKHGAKDKDEQ
